Measurements reported in PubChem BioAssay AID1224830 (NIAID, 2016)
Screen: 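Host factors that control LPS-induced TNF expression in human macrophages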 (primary screen). Cell system: human THP-1 monocytic leukaemia cells, TNF dual-luciferase reporter clone, PMA-differentiated to macrophage-like cells. Reagents: siRNA pool against human genes, 50 nM. Time to read-out: LPS for 4 h, given about 3 days after siRNA transfection. Conditions: bacterial LPS (TLR4 ligand), 10 ng/ml. Measurement: 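TNF firefly reporter luminescence divided by renilla, normalised to the plate median, then turned into a robust z-score for each replicate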. Scale: TNF reporter robust z-score: higher = stronger TNF reporter response to LPS. Call rule: 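a well is active when its z-score exceeds 2.8 or falls below -1.5; control wells carry no call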.
The whole screen tested about 18,000 reagents; below is a part drawn at random. Of all reagents, about 2,900 (16%) were called active. 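Calls are made per well; low scores hint the gene aids the LPS response, high scores that it dampens it.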 Entries without a mark were called inactive. Repeated entries: four replicate wells of each siRNA pool.

target gene | TNF reporter robust z-score
C1orf35 (chromosome 1 open reading frame 35) | -0.46
C1orf35 (chromosome 1 open reading frame 35) | 0.37
C1orf35 (chromosome 1 open reading frame 35) | 0.63
C1orf35 (chromosome 1 open reading frame 35) | 0.01
CHAMP1 (chromosome alignment maintaining phosphoprotein 1) | 0.14
CHAMP1 (chromosome alignment maintaining phosphoprotein 1) | 1.05
CHAMP1 (chromosome alignment maintaining phosphoprotein 1) | -0.78
CHAMP1 (chromosome alignment maintaining phosphoprotein 1) | -0.01
FNDC5 (fibronectin type III domain containing 5) | -0.35
FNDC5 (fibronectin type III domain containing 5) | -0.13
FNDC5 (fibronectin type III domain containing 5) | -0.44
FNDC5 (fibronectin type III domain containing 5) | -0.17
DDR2 (discoidin domain receptor tyrosine kinase 2) | 0.81
DDR2 (discoidin domain receptor tyrosine kinase 2) | 4.77 (active)
DDR2 (discoidin domain receptor tyrosine kinase 2) | 0.26
DDR2 (discoidin domain receptor tyrosine kinase 2) | 1.42
GADD45GIP1 (GADD45G interacting protein 1) | 0.43
GADD45GIP1 (GADD45G interacting protein 1) | 1.7
GADD45GIP1 (GADD45G interacting protein 1) | 1.22
GADD45GIP1 (GADD45G interacting protein 1) | 1.17
C1orf50 (chromosome 1 open reading frame 50) | -1.58 (active)
C1orf50 (chromosome 1 open reading frame 50) | -1.62 (active)
C1orf50 (chromosome 1 open reading frame 50) | -1.53 (active)
C1orf50 (chromosome 1 open reading frame 50) | -0.84
JPH4 (junctophilin 4) | 0.85
JPH4 (junctophilin 4) | -1.01
JPH4 (junctophilin 4) | -0.85
JPH4 (junctophilin 4) | -0.42
ZNF532 (zinc finger protein 532) | -0.65
ZNF532 (zinc finger protein 532) | -0.97
ZNF532 (zinc finger protein 532) | -0.81
ZNF532 (zinc finger protein 532) | -0.8
PRKCB (protein kinase C beta) | 1.17
PRKCB (protein kinase C beta) | 1.41
PRKCB (protein kinase C beta) | 2.85 (active)
PRKCB (protein kinase C beta) | 1.26
CXCL6 (C-X-C motif chemokine ligand 6) | 1.39
CXCL6 (C-X-C motif chemokine ligand 6) | 1.92
CXCL6 (C-X-C motif chemokine ligand 6) | 1.34
CXCL6 (C-X-C motif chemokine ligand 6) | 2.45
LGALS13 (galectin 13) | 1.26
LGALS13 (galectin 13) | 0.15
LGALS13 (galectin 13) | 0.17
LGALS13 (galectin 13) | 1.65
CFAP68 (cilia and flagella associated protein 68) | -0.82
CFAP68 (cilia and flagella associated protein 68) | 0.03
CFAP68 (cilia and flagella associated protein 68) | -0.59
CFAP68 (cilia and flagella associated protein 68) | 1.05
ALPL (alkaline phosphatase, biomineralization associated) | 0.96
ALPL (alkaline phosphatase, biomineralization associated) | 2.35
ALPL (alkaline phosphatase, biomineralization associated) | 0.97
ALPL (alkaline phosphatase, biomineralization associated) | 2.49
NXF3 (nuclear RNA export factor 3) | -0.71
NXF3 (nuclear RNA export factor 3) | -0.65
NXF3 (nuclear RNA export factor 3) | -0.64
NXF3 (nuclear RNA export factor 3) | -0.53
OR10AG1 (olfactory receptor family 10 subfamily AG member 1) | -0.85
OR10AG1 (olfactory receptor family 10 subfamily AG member 1) | -0.63
OR10AG1 (olfactory receptor family 10 subfamily AG member 1) | -0.03
OR10AG1 (olfactory receptor family 10 subfamily AG member 1) | 0.19
CMC2 (C-X9-C motif containing 2) | 0.21
CMC2 (C-X9-C motif containing 2) | -0.92
CMC2 (C-X9-C motif containing 2) | -0.5
CMC2 (C-X9-C motif containing 2) | -0.18
ZMAT4 (zinc finger matrin-type 4) | 2.5
ZMAT4 (zinc finger matrin-type 4) | 3.43 (active)
ZMAT4 (zinc finger matrin-type 4) | -1.38
ZMAT4 (zinc finger matrin-type 4) | 1.58
MAN2A2 (mannosidase alpha class 2A member 2) | -0.13
MAN2A2 (mannosidase alpha class 2A member 2) | -0.1
MAN2A2 (mannosidase alpha class 2A member 2) | 0.31
MAN2A2 (mannosidase alpha class 2A member 2) | 0.06
TGM6 (transglutaminase 6) | -0.33
TGM6 (transglutaminase 6) | -0.82
TGM6 (transglutaminase 6) | 0.15
TGM6 (transglutaminase 6) | -0.34
ZNF536 (zinc finger protein 536) | -0.65
ZNF536 (zinc finger protein 536) | -0.72
ZNF536 (zinc finger protein 536) | -1.18
ZNF536 (zinc finger protein 536) | -1.19
MTMR10 (myotubularin related protein 10) | -1.47
MTMR10 (myotubularin related protein 10) | -0.35
MTMR10 (myotubularin related protein 10) | -1.03
MTMR10 (myotubularin related protein 10) | -1.48
P4HTM (prolyl 4-hydroxylase, transmembrane) | 1.45
P4HTM (prolyl 4-hydroxylase, transmembrane) | 1.21
P4HTM (prolyl 4-hydroxylase, transmembrane) | 2.5
P4HTM (prolyl 4-hydroxylase, transmembrane) | 4.74 (active)
IKZF1 (IKAROS family zinc finger 1) | -0.12
IKZF1 (IKAROS family zinc finger 1) | 0.05
IKZF1 (IKAROS family zinc finger 1) | -0.45
IKZF1 (IKAROS family zinc finger 1) | 0.55
CLN5 (CLN5 lysosomal BMP synthase) | 0.07
CLN5 (CLN5 lysosomal BMP synthase) | -0.2
CLN5 (CLN5 lysosomal BMP synthase) | -0.45
CLN5 (CLN5 lysosomal BMP synthase) | -0.07
CD83 (CD83 molecule) | -0.19
CD83 (CD83 molecule) | 0.77
CD83 (CD83 molecule) | -0.62
CD83 (CD83 molecule) | 0.28
TRPM7 | 0.55
TRPM7 | 0.47
TRPM7 | 0.91
TRPM7 | -0.4
KRTAP10-4 (keratin associated protein 10-4) | 1.03
KRTAP10-4 (keratin associated protein 10-4) | -0.57
KRTAP10-4 (keratin associated protein 10-4) | 0.67
KRTAP10-4 (keratin associated protein 10-4) | 0.12
USP37 (ubiquitin specific peptidase 37) | -1.5
USP37 (ubiquitin specific peptidase 37) | 0.29
USP37 (ubiquitin specific peptidase 37) | -0.99
USP37 (ubiquitin specific peptidase 37) | -0.71
CFAP70 (cilia and flagella associated protein 70) | -0.8
CFAP70 (cilia and flagella associated protein 70) | -0.65
CFAP70 (cilia and flagella associated protein 70) | 0.81
CFAP70 (cilia and flagella associated protein 70) | 0.92
ELOVL4 (ELOVL fatty acid elongase 4) | -0.17
ELOVL4 (ELOVL fatty acid elongase 4) | -0.15
ELOVL4 (ELOVL fatty acid elongase 4) | 0.02
ELOVL4 (ELOVL fatty acid elongase 4) | 2.13
PPEF1 (protein phosphatase with EF-hand domain 1) | 1.91
PPEF1 (protein phosphatase with EF-hand domain 1) | -0.67
PPEF1 (protein phosphatase with EF-hand domain 1) | -0.19
PPEF1 (protein phosphatase with EF-hand domain 1) | -0.55
C1QL1 (complement C1q like 1) | 0.26
C1QL1 (complement C1q like 1) | 0.4
C1QL1 (complement C1q like 1) | 0.19
C1QL1 (complement C1q like 1) | -0.31
MTARC1 (mitochondrial amidoxime reducing component 1) | -0.62
MTARC1 (mitochondrial amidoxime reducing component 1) | -0.01
MTARC1 (mitochondrial amidoxime reducing component 1) | -0.47
MTARC1 (mitochondrial amidoxime reducing component 1) | 0.23
OR4B1 (olfactory receptor family 4 subfamily B member 1) | 1.56
OR4B1 (olfactory receptor family 4 subfamily B member 1) | 2.29
OR4B1 (olfactory receptor family 4 subfamily B member 1) | -0.59
OR4B1 (olfactory receptor family 4 subfamily B member 1) | -0.37
KPRP (keratinocyte proline rich protein) | 3.65 (active)
KPRP (keratinocyte proline rich protein) | 2.28
KPRP (keratinocyte proline rich protein) | 1.4
KPRP (keratinocyte proline rich protein) | 0.61

17 neighbouring entries from above:
target gene | TNF reporter robust z-score
PRKCB (protein kinase C beta) | 1.41
PRKCB (protein kinase C beta) | 2.85 (active)
PRKCB (protein kinase C beta) | 1.26
CXCL6 (C-X-C motif chemokine ligand 6) | 1.39
CXCL6 (C-X-C motif chemokine ligand 6) | 1.92
CXCL6 (C-X-C motif chemokine ligand 6) | 1.34
CXCL6 (C-X-C motif chemokine ligand 6) | 2.45
LGALS13 (galectin 13) | 1.26
LGALS13 (galectin 13) | 0.15
LGALS13 (galectin 13) | 0.17
LGALS13 (galectin 13) | 1.65
CFAP68 (cilia and flagella associated protein 68) | -0.82
CFAP68 (cilia and flagella associated protein 68) | 0.03
CFAP68 (cilia and flagella associated protein 68) | -0.59
CFAP68 (cilia and flagella associated protein 68) | 1.05
ALPL (alkaline phosphatase, biomineralization associated) | 0.96
ALPL (alkaline phosphatase, biomineralization associated) | 2.35
